Test system: human induced pluripotent stem cell-derived cardiomyocytes (hiPSC-CMs)
Assay: Field potential recording of hiPSC-CM sheets on multi-electrode array (MEA)
Format: cell-based
Experimental: The cells were thawed and suspended in iCell Cardiomyocytes Plating Medium (Cellular Dynamics International), then plated (approximately 2 × 10^6 cells/well) in 6-well tissue-culture plates coated with 0.1% gelatin. After two days of incubation at 37°C under an atmosphere of 5% CO2, the plating medium was replaced with iCell Cardiomyocytes Maintenance Medium (Cellular Dynamics International); this medium was used as the culture medium throughout the experiments and was replaced every 1 to 3 days. The cells were cultured for 7 to 14 days in a 5% CO2 incubator at 37°C and then re-plated onto MEA probes (MED-P515A or MED-PG515A; Alpha Med Scientific, Osaka, Japan).
The recording areas of the MEA probes were coated with fibronectin (Becton Dickinson, Franklin Lakes, NJ, USA; Invitrogen, Carlsbad, CA, USA; Corning, Corning, NY, USA). Fibronectin was dissolved in distilled water or Dulbecco's phosphate-buffered saline (PBS) [−] to give 50 μg/mL, the recording areas were covered with 2 μL fibronectin solution, and then the MEA probes were incubated at 37°C for at least 1 h. […] After discarding the fibronectin solution from the MEA probes without complete drying, the cell suspension at a density of 3.0 × 10^4 cells in a 2 μL droplet was re-plated onto the fibronectin-coated area of each MEA probe and incubated for 1 to 3 h in a 5% CO2 incubator at 37°C. Each well of the MEA probes was then filled with maintenance medium at a volume of 1 mL/well. The medium was replaced every 1 to 3 days thereafter, and the cells were cultured for 5 to 14 days to obtain high density cardiomyocyte-sheets with spontaneous and synchronous electrical activities.
Prior to recording FPs, the cardiomyocyte-sheets were equilibrated for at least 30 min in a 5% CO2 incubator at 37°C in fresh culture medium. The MEA probes were then transferred to a FP measurement apparatus (MED64 system; Alpha Med Scientific, Osaka, Japan) and covered with a lid through which humidified gas containing 5% CO2 was provided. […] Analogue FP signals from the spontaneously beating cardiomyocyte-sheets were acquired through a 0.1-Hz high-pass filter and a 5-kHz low-pass filter, and digitized at 20 kHz using the MED64 system. […] Compound stock solutions were prepared using DMSO at 1000-fold the target concentrations of the test compounds. The stock solutions were diluted with the maintenance medium to obtain the appropriate compound concentrations, then 1/10th to 1/50th the volume of the medium in the wells was exchanged with an equal volume of the compound-containing medium. The compounds were applied in a cumulative manner to the wells. The concentration of DMSO was 0.5–0.6% at the highest concentration of the test compounds. […] FPD (ms) and ISI (ms) were analyzed using Mobius QT software designed by WitWerx (Santa Cruz, CA, USA) (Fig 1b).
Baseline FP waveforms that met the following criteria were used for analysis. […] In the FP signals, EAD and TA were defined as slow negative spikes and a sharp deflection with an amplitude ≥ ± 100 μV, respectively (Fig 1c). EAD, TA or both usually appear during or after the second positive deflection. ISI, FPD and FPDcF were not calculated for concentrations in which EAD or TA were observed.
As previously mentioned, total 96 data equally from 4 facilities each were used for the analysis (24 data per facility). […] The root mean squared prediction error (RMSE) was used to show the level of accuracy of the equation predicted for the observed data (Fig 2). With categorical data analysis of FPD, inter-facilities differences were investigated with Kruskal-Wallis test (Fig 4).

[1] = E-4031 1 nM, all 4 facilities, n=24
[2] = E-4031 3 nM, all 4 facilities, n=24
[3] = E-4031 10 nM, all 4 facilities, n=24

Cc1cccc(CCN2CCC(C(=O)c3ccc(NS(C)(=O)=O)cc3)CC2)n1 [E-4031]
Preparations in absolute FPD category > 450 ms [1]: 29%(7/24)
Preparations in absolute FPD category > 480 ms [1]: 8%(2/24)
Preparations in absolute FPD category > 500 ms [1]: 29%(7/24)
Preparations in absolute FPD category ≤ 450 ms [1]: 33%(8/24)
Preparations in absolute FPD category > 450 ms (E-4031 1 nM, facility A, n=6): 50%(3/6)
Preparations in absolute FPD category > 480 ms (E-4031 1 nM, facility A, n=6): 0%(0/6)
Preparations in absolute FPD category > 500 ms (E-4031 1 nM, facility A, n=6): 33%(2/6)
Preparations in absolute FPD category ≤ 450 ms (E-4031 1 nM, facility A, n=6): 17%(1/6)
Preparations in absolute FPD category > 450 ms (E-4031 1 nM, facility B, n=6): 50%(3/6)
Preparations in absolute FPD category > 480 ms (E-4031 1 nM, facility B, n=6): 0%(0/6)
Preparations in absolute FPD category > 500 ms (E-4031 1 nM, facility B, n=6): 0%(0/6)
Preparations in absolute FPD category ≤ 450 ms (E-4031 1 nM, facility B, n=6): 50%(3/6)
Preparations in absolute FPD category > 450 ms (E-4031 1 nM, facility C, n=6): 17%(1/6)
Preparations in absolute FPD category > 480 ms (E-4031 1 nM, facility C, n=6): 0%(0/6)
Preparations in absolute FPD category > 500 ms (E-4031 1 nM, facility C, n=6): 17%(1/6)
Preparations in absolute FPD category ≤ 450 ms (E-4031 1 nM, facility C, n=6): 67%(4/6)
Preparations in absolute FPD category > 450 ms (E-4031 1 nM, facility D, n=6): 0%(0/6)
Preparations in absolute FPD category > 480 ms (E-4031 1 nM, facility D, n=6): 33%(2/6)
Preparations in absolute FPD category > 500 ms (E-4031 1 nM, facility D, n=6): 67%(4/6)
Preparations in absolute FPD category ≤ 450 ms (E-4031 1 nM, facility D, n=6): 0%(0/6)
Preparations in absolute FPD category > 450 ms [2]: 29%(7/24)
Preparations in absolute FPD category > 480 ms [2]: 13%(3/24)
Preparations in absolute FPD category ≤ 450 ms [2]: 8%(2/24)
Preparations in absolute FPD category > 450 ms (E-4031 3 nM, facility A, n=6): 33%(2/6)
Preparations in absolute FPD category > 480 ms (E-4031 3 nM, facility A, n=6): 17%(1/6)
Preparations in absolute FPD category > 500 ms (E-4031 3 nM, facility A, n=6): 50%(3/6)
Preparations in absolute FPD category ≤ 450 ms (E-4031 3 nM, facility A, n=6): 0%(0/6)
Preparations in absolute FPD category > 450 ms (E-4031 3 nM, facility B, n=6): 33%(2/6)
Preparations in absolute FPD category > 480 ms (E-4031 3 nM, facility B, n=6): 33%(2/6)
Preparations in absolute FPD category > 500 ms (E-4031 3 nM, facility B, n=6): 33%(2/6)
Preparations in absolute FPD category ≤ 450 ms (E-4031 3 nM, facility B, n=6): 0%(0/6)
Preparations in absolute FPD category > 450 ms (E-4031 3 nM, facility C, n=6): 50%(3/6)
Preparations in absolute FPD category > 480 ms (E-4031 3 nM, facility C, n=6): 0%(0/6)
Preparations in absolute FPD category > 500 ms (E-4031 3 nM, facility C, n=6): 17%(1/6)
Preparations in absolute FPD category ≤ 450 ms (E-4031 3 nM, facility C, n=6): 33%(2/6)
Preparations in absolute FPD category > 450 ms (E-4031 3 nM, facility D, n=6): 0%(0/6)
Preparations in absolute FPD category > 480 ms (E-4031 3 nM, facility D, n=6): 0%(0/6)
Preparations in absolute FPD category > 500 ms (E-4031 3 nM, facility D, n=6): 100%(6/6)
Preparations in absolute FPD category ≤ 450 ms (E-4031 3 nM, facility D, n=6): 0%(0/6)
Preparations in absolute FPD category > 450 ms [3]: 0%(0/24)
Preparations in absolute FPD category > 480 ms [3]: 0%(0/24)
Preparations in absolute FPD category ≤ 450 ms [3]: 4%(1/24)
Preparations with EAD/TA [3]: 29%(7/24)
Number of preparations that showed EAD/TAs (E-4031 10 nM, all 4 facilities, of 24): 7 preparations
Preparations in absolute FPD category > 450 ms (E-4031 10 nM, facility A, n=6): 0%(0/6)
Preparations in absolute FPD category > 480 ms (E-4031 10 nM, facility A, n=6): 0%(0/6)
Preparations in absolute FPD category > 500 ms (E-4031 10 nM, facility A, n=6): 67%(4/6)
Preparations in absolute FPD category ≤ 450 ms (E-4031 10 nM, facility A, n=6): 0%(0/6)
Preparations with EAD/TA (E-4031 10 nM, facility A, n=6): 33%(2/6)
Preparations in absolute FPD category > 450 ms (E-4031 10 nM, facility B, n=6): 0%(0/6)
Preparations in absolute FPD category > 480 ms (E-4031 10 nM, facility B, n=6): 0%(0/6)
Preparations in absolute FPD category > 500 ms (E-4031 10 nM, facility B, n=6): 100%(6/6)
Preparations in absolute FPD category ≤ 450 ms (E-4031 10 nM, facility B, n=6): 0%(0/6)
Preparations in absolute FPD category > 450 ms (E-4031 10 nM, facility C, n=6): 0%(0/6)
Preparations in absolute FPD category > 480 ms (E-4031 10 nM, facility C, n=6): 0%(0/6)
Preparations in absolute FPD category > 500 ms (E-4031 10 nM, facility C, n=6): 83%(5/6)
Preparations in absolute FPD category ≤ 450 ms (E-4031 10 nM, facility C, n=6): 17%(1/6)
Preparations in absolute FPD category > 450 ms (E-4031 10 nM, facility D, n=6): 0%(0/6)
Preparations in absolute FPD category > 480 ms (E-4031 10 nM, facility D, n=6): 0%(0/6)
Preparations in absolute FPD category > 500 ms (E-4031 10 nM, facility D, n=6): 17%(1/6)
Preparations in absolute FPD category ≤ 450 ms (E-4031 10 nM, facility D, n=6): 0%(0/6)
Preparations with EAD/TA (E-4031 10 nM, facility D, n=6): 83%(5/6)
Preparations with EAD/TA (E-4031 30 nM, facility A, n=6): 100%(6/6)
Preparations with EAD/TA (E-4031 30 nM, facility B, n=6): 100%(6/6)
Preparations in absolute FPD category > 450 ms (E-4031 30 nM, facility C, n=6): 0%(0/6)
Preparations in absolute FPD category > 480 ms (E-4031 30 nM, facility C, n=6): 0%(0/6)
Preparations in absolute FPD category > 500 ms (E-4031 30 nM, facility C, n=6): 17%(1/6)
Preparations in absolute FPD category ≤ 450 ms (E-4031 30 nM, facility C, n=6): 0%(0/6)
Preparations with EAD/TA (E-4031 30 nM, facility C, n=6): 83%(5/6)
Preparations with EAD/TA (E-4031 30 nM, facility D, n=6): 100%(6/6)
Preparations with EAD/TA (E-4031 100 nM, all 4 facilities, n=24): 100%(24/24)
Preparations with EAD/TA (E-4031 100 nM, facility C, n=6): 100%(6/6)
Delta FPDcF (categorical analysis, Fridericia correction, S5 Table): increased in a concentration-dependent manner
Delta FPD (categorical analysis, S4 Table): increased in a concentration-dependent manner
Effect on FPD (cumulative application): prolonged FPD in a concentration-dependent manner
